Source: PubChem BioAssay AID743454 (Peter MacCallum Cancer Centre, 2014)

Purpose: 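Genes whose loss kills vorinostat-resistant colon cancer cells under vorinostat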 (primary screen)
Cell system: human HCT116-VR colon cancer cells, selected for vorinostat resistance
Knock-down reagent: siRNA pool against human genes, 40 nM siRNA pool
Time to read-out: vorinostat for 24 h, read-out about 72 h after transfection
Challenge: vorinostat at 2.5 µM final
Measured: 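Cell viability by CellTiter-Fluor and caspase 3/7 activity by luminescence, each scaled to mock wells per plate, duplicates averaged, then robust z-scored over all plates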
Reading the numbers: viability robust z-score: higher = more viable cells than screen typical; caspase robust z-score: higher = more caspase 3/7 activity than screen typical
Call rule: 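Hits are knock-downs in viability class RV1/RV2 or caspase class CA1/CA2, excluding ones that killed cells in the no-drug cell-count arm; hits then retested with single siRNAs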
This is an unselected part of about 18,000 deposited reagents. 450 of all reagents (2.5%) were called active. 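Single biological run; no consistent viability z cut-off exists, so the class columns, not z-scores, define the calls.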 A number with no mark means an inactive call. The numbers tell different reagents against one gene apart.

target,pool no.,viability hit class,caspase hit class,viability robust z-score,caspase robust z-score
TOR1AIP2 (torsin 1A interacting protein 2),1,no change,no change,0.3,0.64
TOR1AIP2 (torsin 1A interacting protein 2),2,no change,no change,1.43,1.95
FGFRL1 (fibroblast growth factor receptor like 1),1,RV2 (reduced viability) (active),no change,-3.13,3.44
ANKRD20A1 (ankyrin repeat domain 20 family member A1),1,no change,no change,-0.28,3.77
"BIVM (basic, immunoglobulin-like variable motif containing)",1,no change,no change,0.28,0.06
C11orf24 (chromosome 11 open reading frame 24),1,no change,no change,-0.46,1.26
GTF2A2 (general transcription factor IIA subunit 2),1,no change,no change,1.12,-0.1
NDUFB11 (NADH:ubiquinone oxidoreductase subunit B11),1,no change,no change,1.4,-0.76
RUVBL1 (RuvB like AAA ATPase 1),1,no change,no change,-2.75,0.82
MIA (MIA SH3 domain containing),1,no change,no change,-0.24,0.54
NEXN (nexilin F-actin binding protein),1,no change,no change,0.76,0.44
INTS15 (integrator complex subunit 15),1,no change,no change,-1.45,0.34
LSR (lipolysis stimulated lipoprotein receptor),1,no change,no change,-1.46,1.58
"MAGOH (mago homolog, exon junction complex subunit)",1,RV2 (reduced viability) (active),no change,-3.63,2.62
"FGD2 (FYVE, RhoGEF and PH domain containing 2)",1,no change,no change,-1.5,0.38
ZNF608 (zinc finger protein 608),1,no change,no change,-1.18,1.19
ZSCAN16 (zinc finger and SCAN domain containing 16),1,no change,no change,0.73,-0.22
ORC3 (origin recognition complex subunit 3),1,no change,no change,0.22,-0.49
AQP7 (aquaporin 7),1,no change,no change,-0.37,1.84
SLURP1 (secreted LY6/PLAUR domain containing 1),1,no change,no change,-0.75,4.19
NDUFAF3 (NADH:ubiquinone oxidoreductase complex assembly factor 3),1,no change,no change,0.7,0.18
ARC (activity regulated cytoskeleton associated protein),1,no change,no change,-2.23,4.44
BNIP3L (BCL2 interacting protein 3 like),1,no change,no change,1.39,3.06
DORIP1 (dopamine receptor interacting protein 1),1,no change,no change,-0.5,0.35
LYAR (Ly1 antibody reactive),1,no change,no change,-0.83,0.05
FAM187B (family with sequence similarity 187 member B),1,no change,no change,0.82,-0.5
SCAND3 (SCAN domain containing 3),1,no change,no change,0.51,-1.21
STIP1 (stress induced phosphoprotein 1),1,no change,no change,2.23,-0.3
UBFD1 (ubiquitin family domain containing 1),1,no change,no change,-0.3,-0.12
GAGE2C (G antigen 2C),1,no change,no change,0.52,1.09
GRHL1 (grainyhead like transcription factor 1),1,no change,no change,0.26,0.38
SYT10 (synaptotagmin 10),1,no change,no change,0.19,-1.1
ZNF343 (zinc finger protein 343),1,no change,no change,0.79,-0.72
NPB (neuropeptide B),1,no change,no change,1.15,-0.13
RPS19BP1 (ribosomal protein S19 binding protein 1),1,no change,no change,-1.25,0.23
"ALDOA (aldolase, fructose-bisphosphate A)",1,no change,no change,-3.63,0.28
WDR81 (WD repeat domain 81),1,no change,no change,0.9,-0.6
FHL3 (four and a half LIM domains 3),1,no change,no change,-0.27,-0.4
ERN1 (endoplasmic reticulum to nucleus signaling 1),1,no change,no change,-1.06,0.47
HMGN3 (high mobility group nucleosomal binding domain 3),1,no change,no change,0.4,-1.07
USP36 (ubiquitin specific peptidase 36),1,no change,no change,-0.7,0.16
ZNF513 (zinc finger protein 513),1,no change,no change,1.04,1.26
BCO1 (beta-carotene oxygenase 1),1,no change,no change,0.6,-0.16
TRMT13 (tRNA methyltransferase 13),1,no change,no change,-0.84,-0.51
DAXX (death domain associated protein),1,no change,no change,-0.18,-0.28
CCNL1 (cyclin L1),1,no change,no change,-2.19,-1.07
FAM76B (family with sequence similarity 76 member B),1,no change,no change,0.92,-0.3
ITGA1 (integrin subunit alpha 1),1,no change,no change,-0.99,-0.12
GLI3 (GLI family zinc finger 3),1,no change,no change,-0.54,0.5
SORL1 (sortilin related receptor 1),1,no change,no change,-0.25,-0.4
CNGA3 (cyclic nucleotide gated channel subunit alpha 3),1,no change,no change,-0.57,1.52
RUSC2 (RUN and SH3 domain containing 2),1,no change,no change,-2.74,-1.16
C2CD5 (C2 calcium dependent domain containing 5),1,no change,no change,1.06,-0.99
LAX1 (lymphocyte transmembrane adaptor 1),1,no change,no change,-0.17,2.51
NDUFB7 (NADH:ubiquinone oxidoreductase subunit B7),1,no change,no change,0.45,0.64
NOL10 (nucleolar protein 10),1,no change,no change,-1.77,-0.3
"SH3GL3 (SH3 domain containing GRB2 like 3, endophilin A3)",1,no change,no change,-0.64,2.17
FEN1 (flap structure-specific endonuclease 1),1,no change,no change,-0.35,-0.29
MSRB1 (methionine sulfoxide reductase B1),1,no change,no change,0.4,0.99
VPS4B (vacuolar protein sorting 4 homolog B),1,no change,no change,-0.42,0.54
CD5L (CD5 molecule like),1,no change,no change,0.37,-0.04
FGF5 (fibroblast growth factor 5),1,no change,no change,0.78,-0.74
FGF6 (fibroblast growth factor 6),1,no change,no change,-0.74,-0.34
DCTN2 (dynactin subunit 2),1,no change,no change,-0.04,-0.12
STXBP1 (syntaxin binding protein 1),1,no change,no change,0.59,0.12
TMEM63A (transmembrane protein 63A),1,no change,no change,1.01,0.02
P2RX7 (purinergic receptor P2X 7),1,no change,no change,-0.18,-0.92
SCARA5 (scavenger receptor class A member 5),1,no change,no change,0.92,1.69
VDAC2 (voltage dependent anion channel 2),1,no change,no change,-2.64,4.53
MYOF (myoferlin),1,no change,no change,-0.26,0.62
TMEM184B (transmembrane protein 184B),1,no change,no change,1.01,-0.64
CDC50A (cell division cycle 50 P4-ATPase accessory subunit A),1,no change,no change,0.4,0.69
PRLR (prolactin receptor),1,no change,no change,-0.22,-0.37

11 entries from above, showing only “viability robust z-score”:
SYT10 (synaptotagmin 10) = 0.19
ZNF343 (zinc finger protein 343) = 0.79
NPB (neuropeptide B) = 1.15
RPS19BP1 (ribosomal protein S19 binding protein 1) = -1.25
ALDOA (aldolase, fructose-bisphosphate A) = -3.63
WDR81 (WD repeat domain 81) = 0.9
FHL3 (four and a half LIM domains 3) = -0.27
ERN1 (endoplasmic reticulum to nucleus signaling 1) = -1.06
HMGN3 (high mobility group nucleosomal binding domain 3) = 0.4
USP36 (ubiquitin specific peptidase 36) = -0.7
ZNF513 (zinc finger protein 513) = 1.04
